Some of the results follow. Small differences around the control level are noise.
Each target was assayed with CN[C@@H]1C[C@H]2O[C@@](C)([C@@H]1OC)n1c3ccccc3c3c4c(c5c6ccccc6n2c5c31)C(=O)NC4 [staurosporine] (assay: log2 fold change of tryptic peptide abundance, ligand vs vehicle (limited proteolysis) (log2 ratio); higher = more trypsin-susceptible (destabilized)). Details: ligand concentration: 20 uM; sample: mouse liver crude lysate; replicate design: treated separately.

The chains behind the UniProt entries cited, without tags or fusion partners. Where a name states a change or a piece, a line headed by the entry shows the natural chain unless it says otherwise.
UniProt Q8K2W9: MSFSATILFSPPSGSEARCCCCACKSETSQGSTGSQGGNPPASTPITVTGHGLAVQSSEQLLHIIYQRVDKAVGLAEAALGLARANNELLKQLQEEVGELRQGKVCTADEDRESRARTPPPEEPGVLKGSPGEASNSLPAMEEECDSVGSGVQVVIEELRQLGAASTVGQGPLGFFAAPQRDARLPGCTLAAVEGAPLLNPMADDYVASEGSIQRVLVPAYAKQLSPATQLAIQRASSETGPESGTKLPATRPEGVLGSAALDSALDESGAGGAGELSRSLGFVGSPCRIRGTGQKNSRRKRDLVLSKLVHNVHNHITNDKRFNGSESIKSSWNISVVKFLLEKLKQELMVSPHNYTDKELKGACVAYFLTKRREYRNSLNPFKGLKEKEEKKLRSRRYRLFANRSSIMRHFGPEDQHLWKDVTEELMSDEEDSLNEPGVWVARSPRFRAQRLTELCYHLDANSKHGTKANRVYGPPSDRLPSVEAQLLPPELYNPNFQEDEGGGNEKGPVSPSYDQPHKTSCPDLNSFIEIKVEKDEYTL
UniProt Q8K284: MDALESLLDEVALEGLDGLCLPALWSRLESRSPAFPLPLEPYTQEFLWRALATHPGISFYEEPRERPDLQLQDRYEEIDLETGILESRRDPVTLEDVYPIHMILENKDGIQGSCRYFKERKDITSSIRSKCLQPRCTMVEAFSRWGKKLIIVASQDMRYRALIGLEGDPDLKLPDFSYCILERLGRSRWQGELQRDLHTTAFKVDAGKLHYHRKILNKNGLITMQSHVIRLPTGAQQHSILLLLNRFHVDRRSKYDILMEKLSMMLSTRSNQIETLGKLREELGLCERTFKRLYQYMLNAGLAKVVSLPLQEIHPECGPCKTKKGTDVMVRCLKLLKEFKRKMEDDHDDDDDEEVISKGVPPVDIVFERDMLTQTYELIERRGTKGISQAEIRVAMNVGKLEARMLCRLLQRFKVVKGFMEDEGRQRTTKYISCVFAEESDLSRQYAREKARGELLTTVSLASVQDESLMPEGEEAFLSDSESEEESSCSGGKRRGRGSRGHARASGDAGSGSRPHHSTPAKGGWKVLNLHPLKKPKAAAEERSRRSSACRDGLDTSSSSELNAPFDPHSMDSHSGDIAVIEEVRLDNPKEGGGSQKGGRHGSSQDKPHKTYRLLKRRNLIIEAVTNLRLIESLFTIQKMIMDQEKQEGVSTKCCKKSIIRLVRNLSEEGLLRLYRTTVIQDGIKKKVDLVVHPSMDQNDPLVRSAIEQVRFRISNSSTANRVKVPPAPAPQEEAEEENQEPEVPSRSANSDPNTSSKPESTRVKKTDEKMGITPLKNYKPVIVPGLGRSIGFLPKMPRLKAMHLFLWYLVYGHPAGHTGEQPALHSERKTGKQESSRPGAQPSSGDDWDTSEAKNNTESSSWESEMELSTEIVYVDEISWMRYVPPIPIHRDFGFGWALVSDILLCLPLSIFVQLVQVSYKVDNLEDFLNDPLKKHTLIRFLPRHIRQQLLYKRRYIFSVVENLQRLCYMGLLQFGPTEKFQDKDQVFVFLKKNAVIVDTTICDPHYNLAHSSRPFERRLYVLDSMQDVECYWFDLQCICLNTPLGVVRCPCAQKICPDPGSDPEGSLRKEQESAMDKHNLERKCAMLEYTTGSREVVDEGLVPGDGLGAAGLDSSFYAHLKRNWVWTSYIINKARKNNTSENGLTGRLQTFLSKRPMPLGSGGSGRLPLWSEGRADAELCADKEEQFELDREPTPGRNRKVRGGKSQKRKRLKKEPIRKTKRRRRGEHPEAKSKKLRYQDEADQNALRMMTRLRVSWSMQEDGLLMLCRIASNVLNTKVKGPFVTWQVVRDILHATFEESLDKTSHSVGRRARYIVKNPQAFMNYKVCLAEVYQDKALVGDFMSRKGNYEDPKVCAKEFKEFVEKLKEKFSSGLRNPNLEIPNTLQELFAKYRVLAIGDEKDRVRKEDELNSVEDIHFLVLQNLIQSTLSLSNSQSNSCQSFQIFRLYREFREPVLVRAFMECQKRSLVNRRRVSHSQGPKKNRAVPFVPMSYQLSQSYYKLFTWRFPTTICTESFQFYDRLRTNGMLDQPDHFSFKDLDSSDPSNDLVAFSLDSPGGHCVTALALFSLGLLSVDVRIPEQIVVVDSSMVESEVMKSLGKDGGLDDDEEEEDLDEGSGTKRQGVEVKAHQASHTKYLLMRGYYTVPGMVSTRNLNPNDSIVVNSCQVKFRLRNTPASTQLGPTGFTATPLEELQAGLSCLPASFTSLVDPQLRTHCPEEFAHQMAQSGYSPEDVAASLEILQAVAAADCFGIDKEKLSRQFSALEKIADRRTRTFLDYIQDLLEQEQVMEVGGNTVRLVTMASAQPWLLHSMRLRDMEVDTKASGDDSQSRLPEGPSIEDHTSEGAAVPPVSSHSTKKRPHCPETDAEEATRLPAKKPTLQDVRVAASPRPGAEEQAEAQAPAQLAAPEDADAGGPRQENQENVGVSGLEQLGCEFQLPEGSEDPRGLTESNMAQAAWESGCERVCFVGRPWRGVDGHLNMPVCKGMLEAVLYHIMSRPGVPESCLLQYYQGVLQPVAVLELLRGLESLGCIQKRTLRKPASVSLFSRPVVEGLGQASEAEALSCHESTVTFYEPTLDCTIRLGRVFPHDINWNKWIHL
UniProt Q8K1N1: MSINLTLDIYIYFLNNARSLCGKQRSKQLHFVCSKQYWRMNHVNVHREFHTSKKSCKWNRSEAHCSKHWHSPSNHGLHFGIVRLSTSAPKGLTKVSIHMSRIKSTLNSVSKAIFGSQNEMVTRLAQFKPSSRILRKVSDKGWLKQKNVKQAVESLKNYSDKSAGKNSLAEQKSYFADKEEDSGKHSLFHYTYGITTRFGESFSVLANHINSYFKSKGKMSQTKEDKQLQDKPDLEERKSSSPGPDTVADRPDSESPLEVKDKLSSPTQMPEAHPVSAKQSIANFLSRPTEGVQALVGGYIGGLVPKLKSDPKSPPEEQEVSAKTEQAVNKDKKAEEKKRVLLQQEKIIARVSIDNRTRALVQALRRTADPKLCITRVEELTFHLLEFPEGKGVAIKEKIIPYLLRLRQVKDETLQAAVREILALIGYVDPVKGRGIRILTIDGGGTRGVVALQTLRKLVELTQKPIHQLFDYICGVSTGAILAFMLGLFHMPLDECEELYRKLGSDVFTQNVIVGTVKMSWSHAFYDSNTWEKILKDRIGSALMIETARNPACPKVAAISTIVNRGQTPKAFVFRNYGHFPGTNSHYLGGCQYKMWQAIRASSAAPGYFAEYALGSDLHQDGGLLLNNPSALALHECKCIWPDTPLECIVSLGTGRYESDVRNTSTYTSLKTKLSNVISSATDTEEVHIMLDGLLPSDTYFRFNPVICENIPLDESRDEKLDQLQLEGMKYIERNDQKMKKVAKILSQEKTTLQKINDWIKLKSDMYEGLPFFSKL
UniProt Q8K201: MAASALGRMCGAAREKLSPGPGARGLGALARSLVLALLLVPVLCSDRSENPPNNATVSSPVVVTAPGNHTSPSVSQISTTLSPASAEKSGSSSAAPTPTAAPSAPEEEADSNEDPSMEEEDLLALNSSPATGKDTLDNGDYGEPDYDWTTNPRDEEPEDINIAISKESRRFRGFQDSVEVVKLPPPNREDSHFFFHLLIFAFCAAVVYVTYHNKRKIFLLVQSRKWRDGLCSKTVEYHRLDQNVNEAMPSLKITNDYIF
UniProt Q8K4T3: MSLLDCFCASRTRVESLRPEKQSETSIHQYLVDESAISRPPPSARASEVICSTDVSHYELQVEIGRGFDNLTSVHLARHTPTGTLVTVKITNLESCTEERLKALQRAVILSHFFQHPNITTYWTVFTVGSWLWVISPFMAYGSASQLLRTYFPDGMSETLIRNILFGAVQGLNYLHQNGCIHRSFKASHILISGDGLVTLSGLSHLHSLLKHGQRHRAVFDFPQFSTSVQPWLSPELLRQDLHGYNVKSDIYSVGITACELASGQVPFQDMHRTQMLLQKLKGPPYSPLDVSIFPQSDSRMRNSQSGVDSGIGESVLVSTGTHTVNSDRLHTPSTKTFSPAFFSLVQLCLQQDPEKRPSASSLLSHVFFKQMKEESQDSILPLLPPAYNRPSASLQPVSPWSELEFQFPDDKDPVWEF
UniProt Q8K4G5: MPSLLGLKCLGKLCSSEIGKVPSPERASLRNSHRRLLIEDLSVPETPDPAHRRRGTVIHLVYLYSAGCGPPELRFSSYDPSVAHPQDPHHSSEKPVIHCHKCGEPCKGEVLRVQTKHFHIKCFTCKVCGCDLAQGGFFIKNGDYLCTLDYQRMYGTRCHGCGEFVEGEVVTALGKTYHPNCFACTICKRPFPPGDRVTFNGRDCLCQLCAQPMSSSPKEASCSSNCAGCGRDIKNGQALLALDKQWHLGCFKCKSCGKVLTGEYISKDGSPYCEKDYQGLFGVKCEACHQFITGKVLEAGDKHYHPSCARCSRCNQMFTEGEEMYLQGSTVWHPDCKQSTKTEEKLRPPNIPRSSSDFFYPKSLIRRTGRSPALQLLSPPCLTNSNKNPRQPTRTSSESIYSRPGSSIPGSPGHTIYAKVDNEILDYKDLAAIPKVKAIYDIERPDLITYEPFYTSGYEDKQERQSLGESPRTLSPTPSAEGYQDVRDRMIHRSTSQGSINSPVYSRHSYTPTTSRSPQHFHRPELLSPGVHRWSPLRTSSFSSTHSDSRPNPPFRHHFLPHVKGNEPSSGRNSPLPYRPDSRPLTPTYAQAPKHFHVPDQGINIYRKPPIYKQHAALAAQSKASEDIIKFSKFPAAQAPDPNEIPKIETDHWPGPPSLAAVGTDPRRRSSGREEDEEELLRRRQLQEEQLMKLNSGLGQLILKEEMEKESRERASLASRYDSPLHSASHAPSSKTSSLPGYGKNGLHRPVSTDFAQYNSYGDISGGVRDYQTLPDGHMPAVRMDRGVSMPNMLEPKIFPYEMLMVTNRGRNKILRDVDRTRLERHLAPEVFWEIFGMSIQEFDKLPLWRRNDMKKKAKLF
UniProt Q8K183: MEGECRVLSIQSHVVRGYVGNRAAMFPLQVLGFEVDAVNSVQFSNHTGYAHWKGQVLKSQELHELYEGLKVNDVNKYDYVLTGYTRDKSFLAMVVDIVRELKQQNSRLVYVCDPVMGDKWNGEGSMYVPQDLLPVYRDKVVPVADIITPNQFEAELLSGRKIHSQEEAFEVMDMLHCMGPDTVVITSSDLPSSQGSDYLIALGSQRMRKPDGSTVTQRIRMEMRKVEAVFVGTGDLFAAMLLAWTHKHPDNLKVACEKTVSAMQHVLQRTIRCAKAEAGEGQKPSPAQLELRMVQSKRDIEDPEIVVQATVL
UniProt Q8K3G9: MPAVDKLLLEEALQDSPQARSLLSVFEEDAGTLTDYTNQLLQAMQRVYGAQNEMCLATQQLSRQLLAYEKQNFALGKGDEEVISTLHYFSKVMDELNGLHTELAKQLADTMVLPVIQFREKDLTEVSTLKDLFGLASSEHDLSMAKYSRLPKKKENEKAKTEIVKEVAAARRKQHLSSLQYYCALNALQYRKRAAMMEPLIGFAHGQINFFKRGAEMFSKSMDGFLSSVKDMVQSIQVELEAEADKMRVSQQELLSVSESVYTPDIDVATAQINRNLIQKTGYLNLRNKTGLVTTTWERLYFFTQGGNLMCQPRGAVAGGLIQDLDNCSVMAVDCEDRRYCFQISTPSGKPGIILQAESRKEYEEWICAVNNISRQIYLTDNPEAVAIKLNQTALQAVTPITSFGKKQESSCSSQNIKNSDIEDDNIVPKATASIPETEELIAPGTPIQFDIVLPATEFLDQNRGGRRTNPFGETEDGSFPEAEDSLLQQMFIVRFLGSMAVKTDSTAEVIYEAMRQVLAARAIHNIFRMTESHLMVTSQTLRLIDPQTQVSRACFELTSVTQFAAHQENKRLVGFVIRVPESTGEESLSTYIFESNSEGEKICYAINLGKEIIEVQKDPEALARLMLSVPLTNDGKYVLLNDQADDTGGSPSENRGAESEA
UniProt Q8K349: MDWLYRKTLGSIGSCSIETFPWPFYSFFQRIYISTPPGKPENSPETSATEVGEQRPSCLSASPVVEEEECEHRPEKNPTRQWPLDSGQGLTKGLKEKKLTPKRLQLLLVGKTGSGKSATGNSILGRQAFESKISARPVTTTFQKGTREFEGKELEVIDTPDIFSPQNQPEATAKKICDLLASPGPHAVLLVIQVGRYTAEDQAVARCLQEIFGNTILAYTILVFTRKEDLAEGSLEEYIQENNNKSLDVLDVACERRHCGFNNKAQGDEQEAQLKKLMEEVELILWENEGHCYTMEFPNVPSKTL
UniProt Q8K4F5: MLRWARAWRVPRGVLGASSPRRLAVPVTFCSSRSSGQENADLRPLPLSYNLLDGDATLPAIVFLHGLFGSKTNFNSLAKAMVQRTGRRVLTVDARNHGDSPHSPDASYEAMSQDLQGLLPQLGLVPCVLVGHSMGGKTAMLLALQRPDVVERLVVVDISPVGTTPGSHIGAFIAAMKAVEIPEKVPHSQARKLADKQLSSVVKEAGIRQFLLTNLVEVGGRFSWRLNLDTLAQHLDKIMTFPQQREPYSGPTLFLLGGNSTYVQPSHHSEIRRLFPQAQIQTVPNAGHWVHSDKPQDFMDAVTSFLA

**Q.** “UniProt Q8K1M6 (peptide sequence: LLMHHIR, peptide start residue: 298)” was tested. Which log2 fold change did it give?
**A.** 0.153

**Q.** With “UniProt Q8K1L5 (peptide sequence: VEWSSDTVDNEHMGRR, peptide start residue: 46)” as the target, how does the log2 fold change read?
**A.** -0.394

**Q.** With “UniProt Q8K2W9 (peptide sequence: LVHNVHNHITNDKR, peptide start residue: 309)” as the target, how does the log2 fold change read?
**A.** -0.533

**Q.** For “UniProt Q8R0W0 (peptide sequence: AEHSITGYR, peptide start residue: 1012)”, which log2 fold change is on record?
**A.** 0.742

**Q.** Which log2 fold change does the source give for “UniProt Q8K284 (peptide sequence: DILHATFEESLDKTSHSVGR, peptide start residue: 1293)” here?
**A.** 0.497

**Q.** Which log2 fold change does the source give for “UniProt Q8K2A7 (peptide sequence: ELVPQDLWAAK, peptide start residue: 16)” here?
**A.** -0.131

**Q.** For “UniProt Q8R035 (peptide sequence: QASSYIPLDR, peptide start residue: 67)”, which log2 fold change is on record?
**A.** 0.119

**Q.** Which log2 fold change does the source give for “UniProt Q8K4G1 (peptide sequence: AGPDLASCLDIDECRER, peptide start residue: 994)” here?
**A.** -0.32

**Q.** For “UniProt Q8K1N1 (peptide sequence: SYFADKEEDSGK, peptide start residue: 173)”, which log2 fold change is on record?
**A.** 0.357

**Q.** “UniProt Q8K201 (peptide sequence: GFQDSVEVVK, peptide start residue: 173)” was tested. Which log2 fold change did it give?
**A.** -0.0253

**Q.** How did the log2 fold change turn out when “UniProt Q8R151 (peptide sequence: ASGVDIEEETEKNLEK, peptide start residue: 275)” was run?
**A.** -0.26

**Q.** Which log2 fold change does the source give for “UniProt Q8K2I1 (peptide sequence: IQEVFSSYK, peptide start residue: 55)” here?
**A.** 0.242

**Q.** “UniProt Q8K224 (peptide sequence: TEAHQDVVGR, peptide start residue: 173)” was tested. Which log2 fold change did it give?
**A.** -0.35

**Q.** With “UniProt Q8K4T3 (peptide sequence: HTPTGTLVTVK, peptide start residue: 79)” as the target, how does the log2 fold change read?
**A.** 0.149

**Q.** How did the log2 fold change turn out when “UniProt Q8QZR1 (peptide sequence: ARWNVRPSDMSNK, peptide start residue: 39)” was run?
**A.** -0.327

**Q.** “UniProt Q8R205 (peptide sequence: RHDLYDIYDLPER, peptide start residue: 187)” was tested. Which log2 fold change did it give?
**A.** -0.429

**Q.** “UniProt Q8K4G5 (peptide sequence: QSLGESPR, peptide start residue: 465)” was tested. Which log2 fold change did it give?
**A.** -0.289

**Q.** How did the log2 fold change turn out when “UniProt Q8R2M2 (peptide sequence: LTAQNHQNLHIQEEK, peptide start residue: 269)” was run?
**A.** 0.872

**Q.** “UniProt Q8K330 (peptide sequence: QSHVWEQK, peptide start residue: 469)” was tested. Which log2 fold change did it give?
**A.** -0.142

**Q.** For “UniProt Q8K183 (peptide sequence: SQELHELYEGLK, peptide start residue: 59)”, which log2 fold change is on record?
**A.** -0.342

**Q.** With “UniProt Q8K3G9 (peptide sequence: RKQHLSSLQYYCALNALQYR, peptide start residue: 172)” as the target, how does the log2 fold change read?
**A.** -0.499

**Q.** Which log2 fold change does the source give for “UniProt Q8K349 (peptide sequence: RLQLLLVGK, peptide start residue: 103)” here?
**A.** -0.0842

**Q.** Which log2 fold change does the source give for “UniProt Q8R1K4 (peptide sequence: LFFPEDPVK, peptide start residue: 25)” here?
**A.** 0.443

**Q.** For “UniProt Q8K4F5 (peptide sequence: IMTFPQQR, peptide start residue: 238)”, which log2 fold change is on record?
**A.** -0.495

**Q.** Which log2 fold change does the source give for “UniProt Q8R2Q4 (peptide sequence: IYSGTLTPQLAVHNINR, peptide start residue: 388)” here?
**A.** 0.197

**Q.** With “UniProt Q8K2H1 (peptide sequence: YYSHVDCR, peptide start residue: 66)” as the target, how does the log2 fold change read?
**A.** 0.587
